Assay results: PubChem BioAssay AID2685 (National Center for Advancing Translational Sciences (NCATS), 2010)
The other results are listed elsewhere or left out. The main result of the screen is listed elsewhere. These columns were measured beside it and carry no call. Compounds called inactive in the main read-out are mostly missing here. Potencies come from curve fits of mixed quality, noted in brackets.

Experiment: qHTS Assay for Lipid Storage Modulators in Drosophila S3 Cells;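 on cell number change: cells counted by Cell Tracker Red CMTPX staining in the red channel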
Conditions: BODIPY lipid droplet fluorescence, 18-24 h; for cell number change: measured here: cell count max response, cells fed with added oleic acid
In short: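 Drosophila S3 cells got compounds at several concentrations plus oleic acid (400 uM solution). Laser-scanning cytometry with 488 nm excitation read lipid droplets at 500-530 nm and cells at 575-640 nm. Percent activity was relative to 20 uM Triacsin C.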

[1] = measured here: cell number channel AC50, cells fed with added oleic acid
[2] = measured here: lipid fluorescence (Fed channel) AC50, cells fed with added oleic acid

Compound	cell number change	AC50 [1]	AC50 [2]
CN(CCc1ccccc1)Cc1ccccc1[N+](=O)[O-]	0.462%		
Cc1ccc(C2(O)CC(C)N(C)CC2C)cc1 (centres undefined)	-35.2%	14.6 µM [falling, partial curve]	5.8 µM [falling, single point]
CCN1C(=O)C(=Cc2c(C)n(CC(=O)NCC3CCCO3)c3ccccc23)C(=O)N(CC)C1=S (centres undefined)	15.5%		18.4 µM [rising, single point]
Nc1ccc2nonc2c1[N+](=O)[O-]	-29.9%	0.164 µM [falling, full curve, poor fit]	0.13 µM [falling, full curve]
Cc1ccccc1-n1c(-c2ccoc2)nc2ccccc2c1=O	128%	25.9 µM [rising, partial curve]	
OCCN(CC#CC(O)(c1ccccc1)C1CCCC1)CCO (centres undefined)	-0.14%		0.00461 µM [falling, full curve, poor fit]
CCCCCCN=C(CC)c1c(O)n(CCCC)c(=O)[nH]c1=O	-43.6%	29.1 µM [falling, single point]	25.9 µM [rising, single point]
CC(C)=CCc1c(O)cc2c(c1O)C(=O)CC(c1ccc(O)cc1)O2 (centres undefined)	-73.2%	23.1 µM [falling, partial curve]	20.6 µM [falling, partial curve]
CN(C)C(Cc1ccccc1)C(=O)c1ccc(-c2ccccc2)cc1 (centres undefined)		0.366 µM [rising, full curve]	0.326 µM [rising, full curve]
Cc1cccc(N2C(=O)/C(=C/N3CCN(C(=O)c4ccco4)CC3)C(=O)NC2=S)c1	37.4%	20.6 µM [rising, single point]	29.1 µM [rising, single point]
C[C@H]1CCCC(=O)CCC/C=C/c2cc(O)cc(O)c2C(=O)O1	-49%	29.1 µM [falling, partial curve, poor fit]	29.1 µM [falling, single point]
COc1ccccc1/C=N/N=C(/N)N[N+](=O)[O-]	86%	5.17 µM [rising, partial curve]	
CCc1ccc(N2C(=O)NC(=O)/C(=C\C=C\c3ccco3)C2=O)cc1	-38.1%	20.6 µM [falling, single point]	
COC(=O)C1=C(c2ccc(C(C)=O)cc2)C[C@@H]2CC[C@H]1N2C(=O)NC1Cc2ccccc2C1	3.62%		0.00651 µM [rising, full curve, poor fit]
CCOC(=O)c1cn2nc(OP(=S)(OCC)OCC)cc2nc1C	-5.7%		29.1 µM [rising, single point]
Cn1c(=O)c2nncnc2n(C)c1=O	3.22%	0.0517 µM [rising, full curve, poor fit]	
Cc1cc(O)c2c(c1)OC(C)(C)C1=C2CC(C)CC1 (centres undefined)	-38.4%	20.6 µM [falling, single point]	29.1 µM [falling, single point]
CN1CCN(CC(=O)Nc2ccc([N+](=O)[O-])cc2C(=O)c2ccccc2)CC1	80.6%		
COc1ccc(-n2c(O)c(C(C)=Nc3ccc4c(c3)CCC4)c(=O)[nH]c2=O)cc1	-43.9%	1.84 µM [falling, partial curve]	6.51 µM [falling, full curve]
O=C(C(=O)N1CCOCC1)c1cn(CCCOc2ccccc2)c2ccccc12	-11.8%	0.116 µM [falling, full curve, poor fit]	7.31 µM [falling, partial curve, poor fit]
CNCCc1c[nH]c2ccccc12		4.61 µM [rising, single point]	
CCOC(=O)C(O)(c1ccc(NC(=S)NC(=O)c2ccc(Cl)cc2Cl)cc1)C(F)(F)F (centres undefined)	-33.8%	32.6 µM [falling, single point]	
O=c1[nH]c(CN2CCNCC2)nc2ccccc12	-2.38%		
CCN(CC)P(=S)(c1c(C)nc2ccccn12)c1c(C)nc2ccccn12	-8.64%		
COc1ccccc1CC1C(=O)C2CCN1CC2 (centres undefined)	14.6%		
COC(=O)C1=C(c2c(C)noc2C)C[C@@H]2CC[C@H]1N2C(=O)N1CCCCC1	-19.3%	2.06 µM [falling, single point]	0.184 µM [rising, full curve, poor fit]
CC(C)n1c(O)c(C2c3cc(Cl)ccc3Oc3[nH]c(=O)n(C(C)C)c(=O)c32)c(=O)[nH]c1=O (centres undefined)	-46.8%	16.4 µM [falling, single point]	18.4 µM [falling, single point]

Some values from the entries so far.
Entry for Nc1ccc2nonc2c1[N+](=O)[O-] under AC50 [2]: 0.13 µM [falling, full curve]
Entry for CNCCc1c[nH]c2ccccc12 under AC50 [1]: 4.61 µM [rising, single point]
